Where a name gives a salt, the structure may show the parent alone. Out of some 5,300 compounds screened, about 130 (2.5%) showed an effect of 50% or more. This is one part of the list.
The molecules below were run on M. mycetomatis strain mm55. Settings: primary screen, metabolic activity vs growth control; 96 h, 2 µM; inhibitor.

Row | SMILES | % viability [%]
1 | OC(CC1c2ccccc2-c2cncn21)C1CCCCC1 (stereo not shown) [ONC0005143, nlg919] | 124.3
2 | CC1=CC(=C(c2ccc(N)cc2)c2ccc(N)cc2)C=CC1=N [ONC0002809, basic fuchsin] | 79.53
3 | CN1CCC(Nc2ncc3ncnc(Nc4ccc(F)c(Cl)c4)c3n2)CC1 [ONC0003553, bibx1382] | 119.2
4 | COC(=O)Nc1ccc(-c2nc(N3CCOCC3)c3cnn(C4CCN(C(=O)OC)CC4)c3n2)cc1 [ONC0004862, wye354] | 106.5
5 | COC(=O)N[C@H](C(=O)N[C@@H](Cc1ccccc1)[C@@H](O)CN(Cc1ccc(-c2ccccn2)cc1)NC(=O)[C@@H](NC(=O)OC)C(C)(C)C)C(C)(C)C [ONC0004590, atazanavir sulfate] | 85.69
6 | C[C@@H]1O[C@@H](O[C@@H]2[C@H](Oc3cc(O)c(C(=O)CCc4ccc(O)cc4)c(O)c3)O[C@H](CO)[C@@H](O)[C@@H]2O)[C@H](O)[C@H](O)[C@H]1O [ONC0005050, naringin dihydrochalcone naringin dc] | 103
7 | CNC[C@H](O)[C@@H](O)[C@H](O)[C@H](O)CO [ONC0003260, meglumine] | 54.44
8 | Nc1ccc(S(=O)(=O)Nc2cnc3ccccc3n2)cc1 [ONC0000645, sulfaquinoxaline sodium] | 110.7
9 | CO[C@@H]1[C@H](OC(=O)NC(=O)CCl)CC[C@]2(CO2)[C@H]1[C@@]1(C)O[C@@H]1CC=C(C)C [ONC0005625, tnp470] | 99.97
10 | N#CC(c1ccnc(OCc2ccc(CN3CCOCC3)cc2)n1)c1nc2ccccc2s1 (stereo not shown) [ONC0002169, bentamapimod] | 73.2
11 | CCOC(=O)[C@H](C)C[C@@H](Cc1ccc(-c2ccccc2)cc1)NC(=O)CCC(=O)O [ONC0001801, sacubitril hemicalcium salt] | 87.87
12 | CC(=O)Oc1ccccc1C(=O)Oc1ccccc1C(=O)O [ONC0002931, acetylsalicylsalicylicacid] | 83.85
13 | Cc1cc(O)c(C(C)C)cc1Cl [ONC0003772, chlorothymol] | 114.7
14 | N[C@H](C(=O)O)[C@@H]1CC(Cl)=NO1 [ONC0005468, acivicin] | 102.3
15 | O=c1[nH]cnc2c1cnn2[C@@H]1O[C@H](CO)[C@@H](O)[C@H]1O [ONC0003692, allopurinol riboside] | 73.69
16 | CCOC(=O)[C@H](CCc1ccccc1)N[C@@H](C)C(=O)N(CC(=O)O)C1Cc2ccccc2C1 [ONC0003416, delapril hcl] | 98.59
17 | CCc1cc(O)c(Oc2ccc(C(N)=O)cc2F)cc1F [ONC0000978, mut056399] | 79.67
18 | O=C(NC1CCC1)c1ccc(C#Cc2cccc(F)c2)nc1 [ONC0001908, vu0360172] | 80.38
19 | C[C@H]1c2cccc(O)c2C(=O)C2C(=O)[C@]3(O)C(=O)C(C(N)=O)C(=O)[C@@H](N(C)C)[C@@H]3[C@@H](O)[C@@H]21 (stereo partly shown) [ONC0000682, doxycycline hydrochloride] | 94.49

Fetched by structure from the list above, two records:
Row | SMILES | % viability [%]
19 | C[C@H]1c2cccc(O)c2C(=O)C2C(=O)[C@]3(O)C(=O)C(C(N)=O)C(=O)[C@@H](N(C)C)[C@@H]3[C@@H](O)[C@@H]21 (stereo partly shown) [ONC0000682, doxycycline hydrochloride] | 94.49
1 | OC(CC1c2ccccc2-c2cncn21)C1CCCCC1 (stereo not shown) [ONC0005143, nlg919] | 124.3

(list continues)

Row | SMILES | % viability [%]
20 | C[C@H](Cn1cnc2c(N)ncnc21)OCP(=O)(O)O [ONC0000472, tenofovir] | 92.43
21 | CNC(=O)c1c(I)c(C(=O)NCC(=O)Nc2c(I)c(C(=O)O)c(I)c(C(=O)NCCO)c2I)c(I)c(N(C)C(C)=O)c1I [ONC0002924, ioxaglicacid] | 70.63
22 | CCCCNc1cc(C(=O)O)cc(S(N)(=O)=O)c1Oc1ccccc1 [ONC0000694, bumetanide] | 95.54
23 | CCO[C@@H](Cc1ccc(OCCc2ccc(OS(C)(=O)=O)cc2)cc1)C(=O)O [ONC0003810, tesaglitazar] | 59.12
24 | C=CCN1C[C@H](C)N([C@H](c2ccc(C(=O)N(CC)CC)cc2)c2cccc(OC)c2)C[C@H]1C [ONC0000799, snc80] | 64.2
25 | CC(C)(C)c1ccc(C(=O)CCCN2CCC(OC(c3ccccc3)c3ccccc3)CC2)cc1 [ONC0004504, ebastine] | 69.16
26 | COc1ccc2[nH]c(-c3ccccc3)c(CCNC(C)=O)c2c1 [ONC0003628, 2phenylmelatonin] | 93.21
27 | CC1(C)CC[C@]2(NC(=O)C(C)(F)F)CC[C@]3(C)[C@H](C(=O)C=C4[C@@]5(C)C=C(C#N)C(=O)C(C)(C)[C@@H]5CC[C@]43C)[C@@H]2C1 [ONC0004376, omaveloxolone rta408] | 135.7
28 | CCCCCC(O)c1cccc(OCc2ccc3ccccc3n2)c1 (stereo not shown) [ONC0005481, rev5901 l655238] | 92.78
29 | CC[C@H](NC(=O)c1c(O)c(-c2ccccc2)nc2ccccc12)c1ccccc1 [ONC0001800, talnetant] | 107.6
30 | O=c1ccn([C@@H]2O[C@H](CO)[C@@H](O)[C@H]2O)c(=O)[nH]1 [ONC0004405, uridine] | 127.6
31 | O=C1Nc2c(ccc(Cl)c2Cl)C1=NO [ONC0002536, ns309] | 65.12
32 | O=[N+]([O-])O[C@@H]1CO[C@H]2[C@@H]1OC[C@@H]2O [ONC0002345, isosorbide mononitrate] | 104
33 | COc1ccc2c(c1)-c1nn(CCCN(C)C)c3ccc([N+](=O)[O-])c(c13)N2 [ONC0005428, pyrazoloacridine] | 140.4
34 | O=C(NCCCN1CCCCCC1)C(c1ccccc1)C1CCCCC1 (stereo not shown) [ONC0000015, mr16728] | 94.36
35 | O=C(NO)c1cnc(N2CCN(S(=O)(=O)c3ccc4ccccc4c3)CC2)nc1 [ONC0003397, r306465] | 66.28
36 | C[C@@H](c1nc(-c2ccc(C#N)cc2)cs1)[C@](O)(Cn1cncn1)c1cc(F)ccc1F [Isavuconazole] | 3.591
37 | Cc1nc2cc(-n3ncc(C(=O)c4cc5ccccc5[nH]4)c3N)ccc2[nH]1 [ONC0004455, ch5183284 debio1347] | 110.2
